Measured values reported in the supplement of paper PMC10849652.
The other results are listed elsewhere or left out.

Protein sequences, listed by entry. Tags and fused reporters are not part of them. Lines headed by an entry give the natural chain unless they say otherwise; changes in a name come on top.
UniProt Q86VP1, whole entry, looked up: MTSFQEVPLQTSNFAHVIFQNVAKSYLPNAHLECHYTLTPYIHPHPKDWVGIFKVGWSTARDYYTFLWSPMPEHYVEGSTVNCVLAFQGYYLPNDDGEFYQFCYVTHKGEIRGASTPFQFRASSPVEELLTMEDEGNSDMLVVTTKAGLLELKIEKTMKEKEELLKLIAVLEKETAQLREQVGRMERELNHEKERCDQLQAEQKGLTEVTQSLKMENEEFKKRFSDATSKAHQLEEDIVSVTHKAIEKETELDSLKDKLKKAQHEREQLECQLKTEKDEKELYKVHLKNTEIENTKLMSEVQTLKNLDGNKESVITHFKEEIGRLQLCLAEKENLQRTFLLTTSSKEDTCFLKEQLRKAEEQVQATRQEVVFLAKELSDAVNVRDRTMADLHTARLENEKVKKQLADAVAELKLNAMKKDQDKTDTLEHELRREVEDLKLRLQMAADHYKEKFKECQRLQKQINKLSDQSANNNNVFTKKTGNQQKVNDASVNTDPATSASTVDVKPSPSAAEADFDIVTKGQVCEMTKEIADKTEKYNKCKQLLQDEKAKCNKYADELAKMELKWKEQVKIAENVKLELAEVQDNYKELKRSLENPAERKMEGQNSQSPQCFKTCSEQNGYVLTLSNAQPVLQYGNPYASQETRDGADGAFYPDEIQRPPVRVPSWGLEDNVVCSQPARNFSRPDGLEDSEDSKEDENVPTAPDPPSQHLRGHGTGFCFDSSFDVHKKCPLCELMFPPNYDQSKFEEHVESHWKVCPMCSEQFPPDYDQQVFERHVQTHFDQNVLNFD
UniProt Q99426: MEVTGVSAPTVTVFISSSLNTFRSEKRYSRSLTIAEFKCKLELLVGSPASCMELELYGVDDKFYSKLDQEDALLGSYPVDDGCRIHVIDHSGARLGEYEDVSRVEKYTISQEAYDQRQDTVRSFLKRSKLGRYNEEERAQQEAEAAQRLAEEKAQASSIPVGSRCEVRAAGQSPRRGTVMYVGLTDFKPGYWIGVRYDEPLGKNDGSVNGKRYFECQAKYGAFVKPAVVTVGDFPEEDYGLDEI
UniProt Q9H7E2: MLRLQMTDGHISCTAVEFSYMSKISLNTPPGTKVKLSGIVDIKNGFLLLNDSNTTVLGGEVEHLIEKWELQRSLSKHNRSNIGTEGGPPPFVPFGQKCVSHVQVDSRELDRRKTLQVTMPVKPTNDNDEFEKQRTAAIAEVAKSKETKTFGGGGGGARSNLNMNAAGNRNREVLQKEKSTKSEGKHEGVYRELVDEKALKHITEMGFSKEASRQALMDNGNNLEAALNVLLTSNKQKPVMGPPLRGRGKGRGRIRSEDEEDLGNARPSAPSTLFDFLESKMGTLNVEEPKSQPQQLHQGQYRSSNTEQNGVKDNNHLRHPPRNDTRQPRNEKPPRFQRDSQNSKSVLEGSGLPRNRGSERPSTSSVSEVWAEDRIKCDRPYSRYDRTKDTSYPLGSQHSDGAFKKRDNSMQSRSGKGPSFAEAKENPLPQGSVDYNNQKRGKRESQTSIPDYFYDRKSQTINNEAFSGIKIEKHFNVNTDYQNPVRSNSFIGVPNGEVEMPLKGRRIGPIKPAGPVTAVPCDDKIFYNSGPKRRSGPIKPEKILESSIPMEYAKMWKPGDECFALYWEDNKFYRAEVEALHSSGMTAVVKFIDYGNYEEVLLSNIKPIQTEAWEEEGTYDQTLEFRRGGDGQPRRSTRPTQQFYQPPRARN
UniProt Q9Y2W6: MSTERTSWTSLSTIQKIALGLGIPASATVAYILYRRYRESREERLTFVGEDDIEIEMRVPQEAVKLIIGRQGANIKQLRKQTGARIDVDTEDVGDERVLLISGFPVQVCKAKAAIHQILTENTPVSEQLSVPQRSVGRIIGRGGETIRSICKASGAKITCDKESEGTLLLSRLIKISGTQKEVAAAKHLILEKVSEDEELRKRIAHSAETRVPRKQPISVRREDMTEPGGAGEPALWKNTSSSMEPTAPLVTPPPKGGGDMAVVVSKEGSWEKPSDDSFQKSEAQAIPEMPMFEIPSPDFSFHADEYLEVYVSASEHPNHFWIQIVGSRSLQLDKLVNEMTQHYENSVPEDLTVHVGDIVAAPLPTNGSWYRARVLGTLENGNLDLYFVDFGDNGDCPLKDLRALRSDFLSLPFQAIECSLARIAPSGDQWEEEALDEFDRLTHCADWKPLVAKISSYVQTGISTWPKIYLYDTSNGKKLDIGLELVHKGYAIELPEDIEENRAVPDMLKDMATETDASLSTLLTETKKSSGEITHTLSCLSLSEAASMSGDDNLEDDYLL
UniProt Q16594, whole entry, looked up: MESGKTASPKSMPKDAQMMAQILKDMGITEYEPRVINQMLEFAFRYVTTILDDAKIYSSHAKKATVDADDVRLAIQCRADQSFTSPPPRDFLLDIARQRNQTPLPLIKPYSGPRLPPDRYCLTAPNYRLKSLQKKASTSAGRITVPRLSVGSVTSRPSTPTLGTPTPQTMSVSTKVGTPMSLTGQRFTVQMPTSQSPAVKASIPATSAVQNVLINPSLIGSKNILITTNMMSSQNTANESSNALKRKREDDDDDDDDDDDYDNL
UniProt Q15633: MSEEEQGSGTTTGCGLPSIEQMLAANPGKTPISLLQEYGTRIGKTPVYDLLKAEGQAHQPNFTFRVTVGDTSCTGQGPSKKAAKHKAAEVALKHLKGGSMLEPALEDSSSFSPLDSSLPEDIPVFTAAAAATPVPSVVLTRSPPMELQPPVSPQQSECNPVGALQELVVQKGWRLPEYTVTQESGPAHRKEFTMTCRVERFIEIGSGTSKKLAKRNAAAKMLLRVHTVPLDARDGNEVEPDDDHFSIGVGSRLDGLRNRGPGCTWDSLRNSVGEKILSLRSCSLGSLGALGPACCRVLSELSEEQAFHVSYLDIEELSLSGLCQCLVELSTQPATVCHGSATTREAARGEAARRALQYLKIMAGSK
UniProt Q8NHU6: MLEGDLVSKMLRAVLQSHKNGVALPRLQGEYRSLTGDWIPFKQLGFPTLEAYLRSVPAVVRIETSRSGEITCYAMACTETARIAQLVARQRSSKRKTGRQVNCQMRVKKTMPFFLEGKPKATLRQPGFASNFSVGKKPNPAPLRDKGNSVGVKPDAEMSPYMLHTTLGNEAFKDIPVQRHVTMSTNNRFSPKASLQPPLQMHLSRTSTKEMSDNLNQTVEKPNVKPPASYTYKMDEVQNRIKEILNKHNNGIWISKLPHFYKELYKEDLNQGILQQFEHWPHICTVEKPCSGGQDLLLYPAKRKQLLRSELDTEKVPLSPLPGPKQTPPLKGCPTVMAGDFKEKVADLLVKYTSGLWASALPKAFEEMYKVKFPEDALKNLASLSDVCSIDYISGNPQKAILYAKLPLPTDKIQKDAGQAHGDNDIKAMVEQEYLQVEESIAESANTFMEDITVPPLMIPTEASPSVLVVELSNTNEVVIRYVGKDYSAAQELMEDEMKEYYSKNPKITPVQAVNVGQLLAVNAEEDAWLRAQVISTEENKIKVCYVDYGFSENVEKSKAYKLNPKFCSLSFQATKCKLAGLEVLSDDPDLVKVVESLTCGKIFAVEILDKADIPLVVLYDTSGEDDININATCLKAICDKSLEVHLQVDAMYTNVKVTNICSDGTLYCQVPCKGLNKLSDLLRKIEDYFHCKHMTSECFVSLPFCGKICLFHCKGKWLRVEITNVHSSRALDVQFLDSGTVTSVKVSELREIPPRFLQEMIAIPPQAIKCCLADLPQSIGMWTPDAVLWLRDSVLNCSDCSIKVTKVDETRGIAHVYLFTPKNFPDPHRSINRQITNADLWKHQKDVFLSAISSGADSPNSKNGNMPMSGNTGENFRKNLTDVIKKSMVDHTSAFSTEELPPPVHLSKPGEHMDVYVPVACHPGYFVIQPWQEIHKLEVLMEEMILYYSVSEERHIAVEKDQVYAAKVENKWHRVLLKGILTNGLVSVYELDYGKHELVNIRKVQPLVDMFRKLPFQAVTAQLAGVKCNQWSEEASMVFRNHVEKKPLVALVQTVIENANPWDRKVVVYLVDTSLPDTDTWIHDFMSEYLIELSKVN
UniProt Q9NVG8: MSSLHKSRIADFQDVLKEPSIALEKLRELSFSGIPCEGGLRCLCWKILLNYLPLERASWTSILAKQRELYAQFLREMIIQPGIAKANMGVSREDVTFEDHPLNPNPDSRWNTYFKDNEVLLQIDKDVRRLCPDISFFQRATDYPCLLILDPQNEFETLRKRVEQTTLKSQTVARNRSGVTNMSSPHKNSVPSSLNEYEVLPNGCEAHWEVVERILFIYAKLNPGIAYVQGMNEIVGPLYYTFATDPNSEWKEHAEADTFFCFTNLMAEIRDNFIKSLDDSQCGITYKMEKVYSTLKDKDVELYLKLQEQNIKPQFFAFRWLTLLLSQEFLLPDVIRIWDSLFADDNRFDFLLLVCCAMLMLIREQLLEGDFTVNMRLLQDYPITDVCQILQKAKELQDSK
UniProt Q9H5Q4: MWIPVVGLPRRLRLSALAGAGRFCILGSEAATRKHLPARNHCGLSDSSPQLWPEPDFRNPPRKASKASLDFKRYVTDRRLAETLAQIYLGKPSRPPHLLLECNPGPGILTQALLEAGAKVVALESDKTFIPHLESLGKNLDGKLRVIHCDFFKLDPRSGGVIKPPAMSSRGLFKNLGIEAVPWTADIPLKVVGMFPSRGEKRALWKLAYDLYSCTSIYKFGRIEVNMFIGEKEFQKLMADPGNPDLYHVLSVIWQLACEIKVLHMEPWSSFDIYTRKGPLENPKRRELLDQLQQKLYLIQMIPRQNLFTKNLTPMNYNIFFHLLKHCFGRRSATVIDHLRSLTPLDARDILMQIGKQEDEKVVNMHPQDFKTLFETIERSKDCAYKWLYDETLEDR
UniProt Q93075: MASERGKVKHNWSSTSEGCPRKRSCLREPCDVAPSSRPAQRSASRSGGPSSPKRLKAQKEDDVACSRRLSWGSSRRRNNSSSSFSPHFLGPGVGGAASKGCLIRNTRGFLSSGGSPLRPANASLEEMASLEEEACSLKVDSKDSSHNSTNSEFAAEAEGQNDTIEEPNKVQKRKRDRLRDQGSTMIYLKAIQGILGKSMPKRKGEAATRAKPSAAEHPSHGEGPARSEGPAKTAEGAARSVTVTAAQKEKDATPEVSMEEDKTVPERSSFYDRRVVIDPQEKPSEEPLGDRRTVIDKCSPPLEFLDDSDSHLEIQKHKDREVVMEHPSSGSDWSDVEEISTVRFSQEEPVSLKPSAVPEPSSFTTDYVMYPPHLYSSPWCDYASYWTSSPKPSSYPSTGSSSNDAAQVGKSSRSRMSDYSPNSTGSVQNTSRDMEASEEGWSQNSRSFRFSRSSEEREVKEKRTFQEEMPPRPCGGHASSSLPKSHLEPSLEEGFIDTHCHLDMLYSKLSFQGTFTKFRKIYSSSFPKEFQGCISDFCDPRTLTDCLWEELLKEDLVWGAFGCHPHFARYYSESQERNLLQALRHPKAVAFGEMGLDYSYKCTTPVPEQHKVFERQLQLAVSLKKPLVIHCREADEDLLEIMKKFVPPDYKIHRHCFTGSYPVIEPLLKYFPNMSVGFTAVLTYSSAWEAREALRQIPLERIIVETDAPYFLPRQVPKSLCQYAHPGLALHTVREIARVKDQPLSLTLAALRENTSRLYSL
UniProt Q92844: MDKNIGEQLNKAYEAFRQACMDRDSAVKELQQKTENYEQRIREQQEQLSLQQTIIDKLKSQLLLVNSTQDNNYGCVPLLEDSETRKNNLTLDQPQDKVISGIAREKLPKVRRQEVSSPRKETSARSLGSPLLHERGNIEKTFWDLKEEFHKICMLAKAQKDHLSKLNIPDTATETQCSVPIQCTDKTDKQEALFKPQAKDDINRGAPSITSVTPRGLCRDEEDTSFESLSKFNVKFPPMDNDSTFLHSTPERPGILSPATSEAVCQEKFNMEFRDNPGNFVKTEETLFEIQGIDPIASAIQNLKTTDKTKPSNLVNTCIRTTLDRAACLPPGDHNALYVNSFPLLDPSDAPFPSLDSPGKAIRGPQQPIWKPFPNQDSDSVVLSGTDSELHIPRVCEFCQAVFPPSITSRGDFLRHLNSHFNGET
UniProt Q9Y4P3: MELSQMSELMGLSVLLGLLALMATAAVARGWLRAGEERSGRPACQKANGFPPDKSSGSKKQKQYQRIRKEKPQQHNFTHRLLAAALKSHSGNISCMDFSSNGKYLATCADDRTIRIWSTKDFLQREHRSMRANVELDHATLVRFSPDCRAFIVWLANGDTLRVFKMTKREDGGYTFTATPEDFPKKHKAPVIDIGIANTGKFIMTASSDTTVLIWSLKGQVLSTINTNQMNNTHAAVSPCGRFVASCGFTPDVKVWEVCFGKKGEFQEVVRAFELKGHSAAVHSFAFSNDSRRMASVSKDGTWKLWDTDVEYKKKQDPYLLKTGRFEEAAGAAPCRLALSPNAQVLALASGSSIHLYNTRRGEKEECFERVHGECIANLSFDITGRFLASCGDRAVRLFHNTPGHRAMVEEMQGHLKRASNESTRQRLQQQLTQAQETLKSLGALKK

Columns and labels:
Assay in all cases: log2 fold change, soluble protein after heating vs DMSO (PISA); higher = thermal stabilisation; K562 lysate, 10 uM; active = over 0.2 and 3.5 SD of the protein, either way, in both replicates (recomputed)
alvocidib = compound: CN1CC[C@H](c2c(O)cc(O)c3c(=O)cc(-c4ccccc4Cl)oc23)[C@H](O)C1 [alvocidib]
How it was run: (§1)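 Dounce homogenisation of K562 pellets in PBS pH 7.4 with 1 mM MgCl2 produced a crude extract, used at 1 mg/mL protein. Exposure to 10 μM compound lasted 30 min, and aliquots were then heated for 3 min across 48°C-58°C, pooled and brought to 0.5% NP-40 at 4°C. The supernatant after 21,000xg for 90 min was quantified by TMTpro 16plex LC-MS/MS with channel sums equalised. Duplicate values are given as log-two fold change in thermal stability relative to solvent controls.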

Tubastatin A = compound: CN1CCc2c(c3ccccc3n2Cc2ccc(C(=O)NO)cc2)C1 [Tubastatin A]
How it was run: as §1

[1] = compound: CNC(=O)C1=CC=CC=C1NC2=NC(=NC=C2Cl)NC3=C(C=C(C=C3)N4CCOCC4)OC
How it was run: as §1

defactinib = compound: CNC(=O)c1ccc(Nc2ncc(C(F)(F)F)c(NCc3nccnc3N(C)S(C)(=O)=O)n2)cc1 [defactinib]
How it was run: as §1

[2] = compound: CNc1nc(-c2ccc3c(N)n[nH]c3c2)cc(N2C[C@@H](C(=O)NC3CCCCC3)CC[C@H]2C)n1
How it was run: as §1

encorafenib = compound: COC(=O)N[C@@H](C)CNc1nccc(-c2cn(C(C)C)nc2-c2cc(Cl)cc(NS(C)(=O)=O)c2F)n1 [encorafenib]
How it was run: as §1

[3] = compound: COC(=O)[C@H](CCSC)NC(=O)C1=C(C=C(C=C1)NC[C@H](CS)N)C2=CC=CC=C2
How it was run: as §1

alisertib = compound: COc1cc(Nc2ncc3c(n2)-c2ccc(Cl)cc2C(c2c(F)cccc2OC)=NC3)ccc1C(=O)O [alisertib]
How it was run: as §1

[4] = compound: COc1cc2nc(-c3cc(F)ccc3O)nc(N[C@@H]3CNC[C@H]3C(C)(C)O)c2cc1OC
How it was run: as §1

gefitinib = compound: COc1cc2ncnc(Nc3ccc(F)c(Cl)c3)c2cc1OCCCN1CCOCC1 [gefitinib]
How it was run: as §1

lapatinib = compound: CS(=O)(=O)CCNCc1ccc(-c2ccc3ncnc(Nc4ccc(OCc5cccc(F)c5)c(Cl)c4)c3c2)o1 [lapatinib]
How it was run: as §1

pictilisib = compound: CS(=O)(=O)N1CCN(Cc2cc3nc(-c4cccc5[nH]ncc45)nc(N4CCOCC4)c3s2)CC1 [pictilisib]
How it was run: as §1

crizotinib = compound: C[C@@H](Oc1cc(-c2cnn(C3CCNCC3)c2)cnc1N)c1c(Cl)ccc(F)c1Cl [crizotinib]
How it was run: as §1

[5] = compound: C[C@H](C1=CC=C(C=C1)C(=O)NC2=C3C=CNC3=NC=C2)N
How it was run: as §1

duvelisib = compound: C[C@H](Nc1ncnc2nc[nH]c12)c1cc2cccc(Cl)c2c(=O)n1-c1ccccc1 [duvelisib]
How it was run: as §1

gandotinib = compound: Cc1cc(Nc2cc(CN3CCOCC3)c3nc(C)c(Cc4ccc(Cl)cc4F)n3n2)n[nH]1 [gandotinib]
How it was run: as §1

tozasertib = compound: Cc1cc(Nc2cc(N3CCN(C)CC3)nc(Sc3ccc(NC(=O)C4CC4)cc3)n2)n[nH]1 [tozasertib]
How it was run: as §1

doramapimod = compound: Cc1ccc(-n2nc(C(C)(C)C)cc2NC(=O)Nc2ccc(OCCN3CCOCC3)c3ccccc23)cc1 [doramapimod]
How it was run: as §1

bafetinib = compound: Cc1ccc(NC(=O)c2ccc(CN3CC[C@H](N(C)C)C3)c(C(F)(F)F)c2)cc1Nc1nccc(-c2cncnc2)n1 [bafetinib]
How it was run: as §1

[6] = compound: Cc1cccc(CC(=O)N2CCc3c2ccc(-c2cn(C)c4ncnc(N)c24)c3F)n1
How it was run: as §1

Row | Target | log2 fold change (alvocidib) | log2 fold change (Tubastatin A) | log2 fold change [1] | log2 fold change (defactinib) | log2 fold change [2] | log2 fold change (encorafenib) | log2 fold change [3] | log2 fold change (alisertib) | log2 fold change [4] | log2 fold change (gefitinib) | log2 fold change (lapatinib) | log2 fold change (pictilisib) | log2 fold change (crizotinib) | log2 fold change [5] | log2 fold change (duvelisib) | log2 fold change (gandotinib) | log2 fold change (tozasertib) | log2 fold change (doramapimod) | log2 fold change (bafetinib) | log2 fold change [6]
1 | TAX1BP1 (UniProt Q86VP1) | inactive: -0.005 | inactive: -0.025 | inactive: 0.002 | inactive: -0.002 | inactive: -0.04 | inactive: -0.01 | inactive: -0.053 | inactive: 0.011 | inactive: -0.035 | inactive: 0.033 | inactive: -0.05 | inactive: -0.032 | inactive: -0.006 | inactive: 0 | inactive: -0.031 | inactive: 0.019 | inactive: -0.016 | inactive: 0 | inactive: -0.045 | inactive: 0.031
2 | TALDO1 (UniProt P37837) | inactive: 0.032 | inactive: 0.014 | inactive: -0.028 | inactive: -0.012 | inactive: -0.069 | inactive: -0.026 | inactive: 0.027 | inactive: 0.017 | inactive: -0.049 | inactive: 0.005 | inactive: 0.085 | inactive: 0.025 | inactive: 0.039 | inactive: 0.035 | inactive: -0.018 | inactive: -0.1 | inactive: -0.014 | inactive: -0.026 | inactive: -0.008 | inactive: -0.103
3 | TBCB (UniProt Q99426) | inactive: -0.057 | inactive: -0.02 | inactive: -0.011 | inactive: 0.001 | inactive: -0.061 | inactive: 0.002 | inactive: -0.116 | inactive: -0.048 | inactive: 0.011 | inactive: 0.024 | inactive: 0.001 | inactive: 0.009 | inactive: -0.009 | inactive: -0.098 | inactive: 0.03 | inactive: 0.022 | inactive: 0.023 | inactive: 0.008 | inactive: 0.021 | inactive: 0.031
4 | TDRD3 isoform 3 (UniProt Q9H7E2) | inactive: 0.043 | inactive: -0.08 | inactive: 0.025 | inactive: 0.033 | inactive: 0.097 | inactive: -0.006 | inactive: -0.029 | inactive: -0.084 | inactive: -0.042 | inactive: 0.297 | inactive: 0.005 | inactive: -0.038 | inactive: 0.024 | inactive: 0.127 | inactive: -0.02 | inactive: -0.068 | inactive: 0.034 | inactive: -0.151 | inactive: 0.093 | inactive: 0.01
5 | TDRKH (UniProt Q9Y2W6) | inactive: -0.017 | inactive: -0.064 | inactive: 0.019 | inactive: 0.033 | inactive: 0.042 | inactive: 0.007 | inactive: 0.008 | inactive: -0.049 | inactive: 0.04 | inactive: 0.001 | inactive: -0.069 | inactive: -0.036 | inactive: -0.083 | inactive: -0.061 | inactive: -0.028 | inactive: 0.062 | inactive: 0.081 | inactive: -0.043 | inactive: 0.02 | inactive: 0.074
6 | TBC1D2 (UniProt Q9BYX2) | inactive: 0.012 | inactive: -0.085 | inactive: -0.034 | inactive: 0.133 | inactive: 0.014 | inactive: -0.057 | inactive: 0.106 | inactive: 0.023 | inactive: 0.072 | inactive: -0.018 | inactive: -0.046 | inactive: -0.031 | inactive: -0.075 | inactive: 0.018 | inactive: -0.016 | inactive: 0.051 | inactive: -0.043 | inactive: 0.07 | inactive: 0.12 | inactive: 0.022
7 | TAF9 (UniProt Q16594) | inactive: 0.032 | inactive: -0.026 | inactive: 0.014 | inactive: -0.03 | inactive: -0.004 | inactive: 0.099 | inactive: -0.041 | inactive: 0.004 | inactive: 0.038 | inactive: 0.084 | inactive: -0.06 | inactive: -0.018 | inactive: -0.004 | inactive: 0.188 | inactive: 0.084 | inactive: -0.002 | inactive: 0.156 | inactive: 0.001 | inactive: 0.018 | inactive: -0.057
8 | TARBP2 (UniProt Q15633) | inactive: 0.016 | inactive: -0.147 | inactive: 0.038 | inactive: 0.017 | inactive: -0.026 | inactive: 0.037 | inactive: 0.072 | inactive: -0.039 | inactive: 0.008 | inactive: -0.01 | inactive: 0.035 | inactive: -0.098 | inactive: -0.092 | inactive: 0.001 | inactive: 0.07 | inactive: -0.08 | inactive: -0.057 | inactive: 0.028 | inactive: -0.028 | inactive: 0.022
9 | TEX264 (UniProt Q9Y6I9) | inactive: 0.103 | inactive: 0.056 | inactive: 0.086 | inactive: 0.079 | inactive: 0.47 | inactive: -0.131 | inactive: 0.06 | inactive: -0.024 | inactive: 0.063 | inactive: 0.018 | inactive: 0.247 | inactive: 0.115 | inactive: -0.012 | inactive: 0.21 | inactive: -0.104 | inactive: -0.086 | inactive: 0.05 | inactive: -0.008 | inactive: 0.176 | inactive: -0.083
10 | TDRD7 (UniProt Q8NHU6) | inactive: -0.078 | inactive: -0.058 | inactive: 0.014 | inactive: -0.052 | inactive: -0.024 | inactive: -0.005 | inactive: 0.015 | inactive: 0.011 | inactive: 0.008 | inactive: 0.083 | inactive: 0.014 | inactive: -0.039 | inactive: -0.022 | inactive: -0.115 | inactive: -0.032 | inactive: 0.015 | inactive: 0.07 | inactive: -0.023 | inactive: -0.017 | inactive: 0.059
11 | TBC1D13 (UniProt Q9NVG8) | inactive: -0.001 | inactive: -0.006 | inactive: 0.001 | inactive: 0 | inactive: 0.023 | inactive: 0.001 | inactive: -0.018 | inactive: 0.015 | inactive: 0.014 | inactive: 0.046 | inactive: -0.025 | inactive: -0.005 | inactive: 0.027 | inactive: -0.076 | inactive: 0.023 | inactive: 0.034 | inactive: -0.001 | inactive: 0.007 | inactive: -0.018 | inactive: 0.03
12 | TFB2M (UniProt Q9H5Q4) | inactive: 0.026 | inactive: -0.011 | inactive: 0.03 | inactive: -0.001 | inactive: -0.001 | inactive: 0.012 | inactive: -0.045 | inactive: 0.013 | inactive: 0.004 | inactive: -0.029 | inactive: -0.018 | inactive: 0.005 | inactive: -0.042 | inactive: -0.008 | inactive: -0.034 | inactive: -0.193 | inactive: 0.025 | inactive: -0.002 | inactive: 0.303 | inactive: 0.017
13 | TATDN2 (UniProt Q93075) | inactive: -0.096 | inactive: 0.013 | inactive: 0.155 | inactive: -0.021 | inactive: 0.054 | inactive: 0.059 | inactive: -0.053 | inactive: -0.031 | inactive: -0.097 | inactive: 0.011 | inactive: -0.13 | inactive: 0.128 | inactive: -0.009 | inactive: -0.047 | inactive: 0.047 | inactive: 0.018 | inactive: 0.024 | inactive: -0.014 | inactive: -0.028 | inactive: 0.012
14 | TANK (UniProt Q92844) | inactive: 0.066 | inactive: -0.043 | inactive: 0.25 | inactive: 0.044 | inactive: 0.068 | inactive: -0.006 | active: -0.309 | inactive: -0.006 | inactive: -0.024 | inactive: -0.047 | inactive: 0.038 | inactive: -0.03 | inactive: 0.27 | inactive: 0.021 | inactive: -0.026 | inactive: 0.141 | inactive: 0.108 | inactive: -0.038 | inactive: 0.023 | inactive: -0.162
15 | TEPSIN, A0A1B0GV70 | inactive: -0.01 | inactive: -0.123 | inactive: 0.171 | inactive: 0.019 | inactive: -0.112 | inactive: -0.054 | inactive: -0.14 | inactive: 0.012 | inactive: -0.058 | inactive: 0.094 | inactive: -0.071 | inactive: 0.024 | inactive: 0.129 | inactive: 0.019 | inactive: 0.204 | inactive: -0.041 | inactive: 0.303 | inactive: -0.049 | inactive: 0.034 | inactive: 0.041
16 | TBL2 (UniProt Q9Y4P3) | inactive: 0.018 | inactive: -0.007 | inactive: 0.023 | inactive: 0.039 | inactive: -0.003 | inactive: 0.057 | inactive: -0.036 | inactive: 0.008 | inactive: 0.055 | inactive: -0.018 | inactive: -0.025 | inactive: -0.002 | inactive: -0.007 | inactive: -0.068 | inactive: 0.014 | inactive: -0.053 | inactive: 0.063 | inactive: 0.032 | inactive: -0.013 | inactive: 0.055

Two records picked at random from those above, as already listed:
Row | Target | log2 fold change (alvocidib) | log2 fold change (Tubastatin A) | log2 fold change [1] | log2 fold change (defactinib) | log2 fold change [2] | log2 fold change (encorafenib) | log2 fold change [3] | log2 fold change (alisertib) | log2 fold change [4] | log2 fold change (gefitinib) | log2 fold change (lapatinib) | log2 fold change (pictilisib) | log2 fold change (crizotinib) | log2 fold change [5] | log2 fold change (duvelisib) | log2 fold change (gandotinib) | log2 fold change (tozasertib) | log2 fold change (doramapimod) | log2 fold change (bafetinib) | log2 fold change [6]
7 | TAF9 (UniProt Q16594) | inactive: 0.032 | inactive: -0.026 | inactive: 0.014 | inactive: -0.03 | inactive: -0.004 | inactive: 0.099 | inactive: -0.041 | inactive: 0.004 | inactive: 0.038 | inactive: 0.084 | inactive: -0.06 | inactive: -0.018 | inactive: -0.004 | inactive: 0.188 | inactive: 0.084 | inactive: -0.002 | inactive: 0.156 | inactive: 0.001 | inactive: 0.018 | inactive: -0.057
6 | TBC1D2 (UniProt Q9BYX2) | inactive: 0.012 | inactive: -0.085 | inactive: -0.034 | inactive: 0.133 | inactive: 0.014 | inactive: -0.057 | inactive: 0.106 | inactive: 0.023 | inactive: 0.072 | inactive: -0.018 | inactive: -0.046 | inactive: -0.031 | inactive: -0.075 | inactive: 0.018 | inactive: -0.016 | inactive: 0.051 | inactive: -0.043 | inactive: 0.07 | inactive: 0.12 | inactive: 0.022
